# Screen size: about 290,000 compounds; about 110 (0.038%) were called active. Inconclusive results, whose numbers are uncertain, are shown with a selection of clear calls. Calls follow the shape of the dose curve; as a rule, active = well fitted inhibition curve with a large enough effect in the polarisation, with a control signal flat (not every such curve was filed as active); inconclusive = small, poorly fitted or top-dose-only effect, or effect the other way, or a change in a side signal; inactive = no such curve, though single readings can be large or run the other way; the % refers to the polarisation. Potencies beside an inconclusive call are fits to weak or partial responses and may not hold up. “Side channel” marks fits to a control or component signal instead of the main read-out.
# Amino acid sequences for entries named in this document (tags omitted).
# UniProt Q03164, whole entry, looked up: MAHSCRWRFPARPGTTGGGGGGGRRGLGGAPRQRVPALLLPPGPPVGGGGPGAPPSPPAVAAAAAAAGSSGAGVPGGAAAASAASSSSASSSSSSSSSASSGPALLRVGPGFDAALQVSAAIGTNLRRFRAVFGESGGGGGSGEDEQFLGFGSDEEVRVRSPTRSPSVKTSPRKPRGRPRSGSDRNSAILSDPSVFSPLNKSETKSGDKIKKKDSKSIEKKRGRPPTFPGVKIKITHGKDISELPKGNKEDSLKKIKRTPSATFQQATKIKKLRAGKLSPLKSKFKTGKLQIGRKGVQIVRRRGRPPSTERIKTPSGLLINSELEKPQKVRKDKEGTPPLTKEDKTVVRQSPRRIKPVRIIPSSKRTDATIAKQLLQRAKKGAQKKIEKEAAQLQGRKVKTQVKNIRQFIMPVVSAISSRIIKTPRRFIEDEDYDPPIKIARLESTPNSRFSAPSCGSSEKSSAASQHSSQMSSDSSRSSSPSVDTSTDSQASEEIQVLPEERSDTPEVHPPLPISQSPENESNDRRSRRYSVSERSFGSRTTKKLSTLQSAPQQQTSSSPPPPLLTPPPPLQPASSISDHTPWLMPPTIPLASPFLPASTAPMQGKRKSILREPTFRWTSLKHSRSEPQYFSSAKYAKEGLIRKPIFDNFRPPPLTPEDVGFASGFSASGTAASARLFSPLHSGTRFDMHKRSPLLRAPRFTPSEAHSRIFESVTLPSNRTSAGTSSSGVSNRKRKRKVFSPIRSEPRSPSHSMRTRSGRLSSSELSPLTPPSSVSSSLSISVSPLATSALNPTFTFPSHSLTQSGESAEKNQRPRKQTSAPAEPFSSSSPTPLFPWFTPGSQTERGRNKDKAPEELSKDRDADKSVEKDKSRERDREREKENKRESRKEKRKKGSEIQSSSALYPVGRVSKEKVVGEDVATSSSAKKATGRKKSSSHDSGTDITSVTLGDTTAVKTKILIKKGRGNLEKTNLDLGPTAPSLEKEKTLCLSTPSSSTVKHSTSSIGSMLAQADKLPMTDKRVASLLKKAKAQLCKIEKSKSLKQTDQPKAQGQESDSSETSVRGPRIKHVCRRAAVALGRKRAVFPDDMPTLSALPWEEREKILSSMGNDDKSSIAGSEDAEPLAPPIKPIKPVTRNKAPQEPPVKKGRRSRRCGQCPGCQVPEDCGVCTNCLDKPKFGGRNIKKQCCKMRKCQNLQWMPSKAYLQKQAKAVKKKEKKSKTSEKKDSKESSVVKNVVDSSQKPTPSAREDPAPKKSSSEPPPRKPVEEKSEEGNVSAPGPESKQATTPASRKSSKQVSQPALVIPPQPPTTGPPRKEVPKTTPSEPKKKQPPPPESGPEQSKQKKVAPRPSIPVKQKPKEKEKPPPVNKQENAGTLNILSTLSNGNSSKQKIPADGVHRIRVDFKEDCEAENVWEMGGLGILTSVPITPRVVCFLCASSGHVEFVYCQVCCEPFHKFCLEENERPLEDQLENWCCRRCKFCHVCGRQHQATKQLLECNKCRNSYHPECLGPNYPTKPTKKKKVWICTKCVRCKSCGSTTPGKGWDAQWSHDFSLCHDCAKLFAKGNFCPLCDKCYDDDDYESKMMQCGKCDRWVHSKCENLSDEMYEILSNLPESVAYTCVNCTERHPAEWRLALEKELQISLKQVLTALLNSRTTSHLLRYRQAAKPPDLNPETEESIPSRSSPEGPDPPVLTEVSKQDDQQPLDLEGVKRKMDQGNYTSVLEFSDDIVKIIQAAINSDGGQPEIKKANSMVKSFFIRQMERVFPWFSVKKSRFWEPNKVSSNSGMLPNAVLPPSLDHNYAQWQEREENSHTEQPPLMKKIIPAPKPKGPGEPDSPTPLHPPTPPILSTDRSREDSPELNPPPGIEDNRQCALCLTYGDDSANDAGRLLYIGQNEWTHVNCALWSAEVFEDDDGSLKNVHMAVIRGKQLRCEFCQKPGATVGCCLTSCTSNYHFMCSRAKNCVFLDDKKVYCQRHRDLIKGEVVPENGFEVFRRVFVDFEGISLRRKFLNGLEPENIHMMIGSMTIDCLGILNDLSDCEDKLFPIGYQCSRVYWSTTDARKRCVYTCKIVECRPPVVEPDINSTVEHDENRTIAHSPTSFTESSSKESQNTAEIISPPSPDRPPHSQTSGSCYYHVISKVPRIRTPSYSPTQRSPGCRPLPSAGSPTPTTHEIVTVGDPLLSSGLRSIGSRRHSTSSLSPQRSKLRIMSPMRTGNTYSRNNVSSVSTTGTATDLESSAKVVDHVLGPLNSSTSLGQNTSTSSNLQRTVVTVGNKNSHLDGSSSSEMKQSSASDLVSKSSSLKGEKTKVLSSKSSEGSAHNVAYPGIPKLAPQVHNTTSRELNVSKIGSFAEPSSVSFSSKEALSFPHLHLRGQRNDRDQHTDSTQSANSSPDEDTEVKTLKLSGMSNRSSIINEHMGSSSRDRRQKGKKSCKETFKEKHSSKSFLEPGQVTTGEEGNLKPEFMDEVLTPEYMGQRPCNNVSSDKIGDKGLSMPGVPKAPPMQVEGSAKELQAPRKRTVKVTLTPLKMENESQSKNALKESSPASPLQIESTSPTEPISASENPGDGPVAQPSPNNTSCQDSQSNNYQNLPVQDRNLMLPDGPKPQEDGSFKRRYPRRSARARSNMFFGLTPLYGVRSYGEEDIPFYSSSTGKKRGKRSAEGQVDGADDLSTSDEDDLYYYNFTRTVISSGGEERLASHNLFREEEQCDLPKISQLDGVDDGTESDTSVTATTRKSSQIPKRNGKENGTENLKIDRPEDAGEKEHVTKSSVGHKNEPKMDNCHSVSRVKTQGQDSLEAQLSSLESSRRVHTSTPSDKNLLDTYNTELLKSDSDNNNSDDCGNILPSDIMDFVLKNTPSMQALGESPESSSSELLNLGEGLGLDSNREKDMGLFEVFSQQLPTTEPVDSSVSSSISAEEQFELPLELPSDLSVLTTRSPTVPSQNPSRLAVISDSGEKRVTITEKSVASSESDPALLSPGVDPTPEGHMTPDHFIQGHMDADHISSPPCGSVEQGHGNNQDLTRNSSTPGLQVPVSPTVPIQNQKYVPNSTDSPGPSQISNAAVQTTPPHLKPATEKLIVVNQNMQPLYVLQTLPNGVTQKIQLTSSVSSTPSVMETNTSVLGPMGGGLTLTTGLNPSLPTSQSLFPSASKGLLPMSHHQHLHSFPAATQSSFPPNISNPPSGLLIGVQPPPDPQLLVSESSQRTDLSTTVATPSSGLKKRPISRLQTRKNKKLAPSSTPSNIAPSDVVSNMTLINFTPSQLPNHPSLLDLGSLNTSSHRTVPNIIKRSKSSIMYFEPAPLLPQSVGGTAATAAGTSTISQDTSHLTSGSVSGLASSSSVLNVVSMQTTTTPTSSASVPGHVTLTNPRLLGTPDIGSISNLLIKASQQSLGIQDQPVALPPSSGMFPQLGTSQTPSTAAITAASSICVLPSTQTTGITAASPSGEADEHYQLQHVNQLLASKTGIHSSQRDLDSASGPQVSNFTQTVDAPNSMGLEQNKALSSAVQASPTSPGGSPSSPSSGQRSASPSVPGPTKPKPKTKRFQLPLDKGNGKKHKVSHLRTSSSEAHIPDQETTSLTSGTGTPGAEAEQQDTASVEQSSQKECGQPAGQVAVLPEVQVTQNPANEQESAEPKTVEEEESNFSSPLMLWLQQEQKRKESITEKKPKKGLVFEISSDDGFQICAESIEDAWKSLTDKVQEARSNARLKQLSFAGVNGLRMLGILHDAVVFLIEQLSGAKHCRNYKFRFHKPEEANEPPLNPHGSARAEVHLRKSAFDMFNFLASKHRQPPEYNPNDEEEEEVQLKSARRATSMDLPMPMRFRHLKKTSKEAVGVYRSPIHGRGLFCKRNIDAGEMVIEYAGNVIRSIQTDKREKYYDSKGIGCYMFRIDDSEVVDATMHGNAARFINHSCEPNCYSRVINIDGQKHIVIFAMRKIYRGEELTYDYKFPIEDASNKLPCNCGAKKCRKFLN
# Molecular target: Histone-lysine N-methyltransferase 2A (Homo sapiens) (UniProt Q03164)
# Test: qHTS Fluorescence Polarization Assay for Inhibitors of MLL CXXC domain - DNA interaction
# Conditions: MLL-CXXC / FITC-HOXA9 DNA fluorescence polarization; series mostly up to 115 µM
# Outline: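 Steps: dispense CXXC domain solution (7 uM) → pin compounds or unlabeled HOX-A9 DNA control → 5 min ambient → add FLSN-HOX-A9 solution (50 nM) → spin → 30 min ambient → fluorescence polarization. Tris pH 7.5/NaCl/DTT/BSA buffer.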
# Potency is read from the fitted curve at half-maximal effect.
row,Structure (SMILES),Potency
1,Brc1ccc2c(c1)C(c1cccnc1)=NNC(c1cccs1)=N2,"inconclusive: 89.1 µM [quencher, side channel, single point]"
2,O=c1c2cc([N+](=O)[O-])ccc2nc2n1CCC2,inactive
3,COc1ccc(Nc2nc(-c3ccccc3O)nc3ccccc23)cc1,"inconclusive: 10 µM [fluorescent, side channel, single point]"
4,Cc1ccc(/C=C/C(=O)NCCCN2CCN(CCCNC(=O)/C=C/c3ccc(C)o3)CC2)o1,inactive
5,Cc1cc(NC(=O)CS(=O)CC(=O)Nc2c(C)cccc2C)ccc1-n1cnnn1 (stereo not drawn),inactive
6,CC(C)CSC1=NSC2=NC(=O)/C(=C\c3ccccc3)C(=N)N12,"inconclusive: 22.4 µM [inhibitor, partial curve]"
7,O=C(NNC(=O)c1sccc1-n1cccc1)Nc1ccccc1,inactive
8,COc1ccc(-c2cc(C(F)(F)F)nc(S(C)(=O)=O)n2)cc1OC,"inconclusive: 17.8 µM [quencher, side channel, partial curve]"
9,Cc1ccc2nc(-c3ccccn3)cc(C(=O)NC(C)C(C)(C)C)c2c1 (stereo not drawn),"inconclusive: 15.8 µM [quencher, side channel, single point]"
10,O=C(Nc1cccn(Cc2c(Cl)cccc2Cl)c1=O)C1CC1,inactive
11,COc1ccc(OCC(=O)O/N=C(\N)c2ccc(OC)cc2)cc1,"inconclusive: 3.16 µM [quencher, side channel, full curve]"
12,CC1(C)c2[nH]c3ccccc3c2C[C@H]2C(=O)N(CCCO)CC(=O)N21,"inconclusive: 7.08 µM [fluorescent, side channel, full curve, poor fit]"
13,CCc1ccccc1NC(=O)CN(C)C(=O)CSc1nc2cc(Cl)ccc2s1,"inconclusive: 0.891 µM [fluorescent, side channel, full curve, poor fit]"
14,CSc1ccccc1-c1nnc(-c2ccc(Cl)cc2)o1,"inconclusive: 1.41 µM [fluorescent, side channel, full curve, poor fit]"
15,CC(C)Oc1ccc(C(=O)O)cc1,"inconclusive: 12.6 µM [fluorescent, side channel, single point]"
16,CCOC(=O)NC(=O)/C(C#N)=C/c1ccc(N(C)C)cc1,"inconclusive: 25.1 µM [fluorescent, side channel, partial curve]"
17,Cc1ccc(N=Nc2[nH]c3ccccc3c2O)cc1,"inconclusive: 31.6 µM [fluorescent, side channel, partial curve]"
18,COc1ccc(-c2nnc(SCC(=O)N3CCCCC3)o2)cc1,"inconclusive: 70.8 µM [fluorescent, side channel, single point]"
19,Cc1ccccc1N1CC(C(=O)Nc2nnc(SCc3cccnc3)s2)CC1=O (stereo not drawn),"inconclusive: 14.1 µM [fluorescent, side channel, partial curve]"

# Shown with bars between the fields: entries from further up
row | Structure (SMILES) | Potency
1 | Brc1ccc2c(c1)C(c1cccnc1)=NNC(c1cccs1)=N2 | inconclusive: 89.1 µM [quencher, side channel, single point]
8 | COc1ccc(-c2cc(C(F)(F)F)nc(S(C)(=O)=O)n2)cc1OC | inconclusive: 17.8 µM [quencher, side channel, partial curve]
14 | CSc1ccccc1-c1nnc(-c2ccc(Cl)cc2)o1 | inconclusive: 1.41 µM [fluorescent, side channel, full curve, poor fit]

# Later entries

row,Structure (SMILES),Potency
1,COc1ccccc1C(=O)Nc1ccnn1C1CCN(C2CCSCC2)CC1,"inconclusive: 31.6 µM [fluorescent, side channel, partial curve]"
2,COc1ccc(-c2noc(C(=O)NCc3ccc(F)cc3)n2)cc1OC,"inconclusive: 8.91 µM [inhibitor, single point]"
3,CC(=O)O[C@H]1[C@H](C)OC=C[C@@H]1OC(C)=O,inactive
4,O=C(O)CCC(=O)N1CCc2cc(S(=O)(=O)NC3CCCC3)ccc21,"inconclusive: 7.94 µM [quencher, side channel, single point]"
5,Cn1ccnc1SCc1ccc(Cl)cc1Cl,"inconclusive: 7.08 µM [fluorescent, side channel, full curve]"
6,CCCC(=O)n1nc(-c2ccco2)nc1N,"inconclusive: 35.5 µM [fluorescent, side channel, single point]"
7,CCOC(=O)c1c(NC(=O)C2CCCN(S(=O)(=O)c3ccccc3)C2)sc2c1CCCC2 (stereo not drawn),"inconclusive: 22.4 µM [fluorescent, side channel, partial curve]"
8,COc1cccc(-c2nn(C)c3sc(C(=O)NCc4ccc(C)cc4)cc23)c1,inactive
9,O=S(=O)(c1ccc2nc(Cc3cccc(C(F)(F)F)c3)[nH]c2c1)N1CCOCC1,"inconclusive: 89.1 µM [quencher, side channel, single point]"
10,COc1cc(N2CCCC2)c(OC)cc1/C=C1/NC(=S)NC1=O,"inconclusive: 8.91 µM [fluorescent, side channel, full curve]"
11,COc1cc(/C=N\NC(=O)c2ccc(Cn3nc([N+](=O)[O-])c(Cl)c3C)o2)ccc1O,"inconclusive: 5.62 µM [quencher, side channel, partial curve]"
12,CSCCC(NC(=O)c1ccco1)C(=O)N1CC=C(c2ccccc2)CC1 (stereo not drawn),"inconclusive: 14.1 µM [fluorescent, side channel, single point]"
13,CC(CN1CCCCC1)NC(=O)c1cc(-c2ccccn2)nc2ccc(Cl)cc12 (stereo not drawn),"inconclusive: 10 µM [inhibitor, single point]"
14,O=C(COC(=O)/C=C/c1ccccc1Cl)NCCNC(=O)COC(=O)/C=C/c1ccccc1Cl,"inconclusive: 1.41 µM [inhibitor, partial curve, poor fit]"
15,COc1ccc(NC(=O)COc2cccc(-n3cnnn3)c2)cc1,"inconclusive: 35.5 µM [fluorescent, side channel, partial curve]"
16,Cc1onc(-c2ccccc2)c1C(=O)NNC(=S)NC(=O)c1ccc(Br)cc1,"inconclusive: 11.2 µM [quencher, side channel, partial curve, poor fit]"
17,CC1CN(C(=O)N[C@@H](Cc2ccccc2)C(=O)O)CC(C)O1 (stereo partly drawn),"inconclusive: 44.7 µM [inhibitor, single point]"
18,COc1cc(N=c2oc3c(C)ncc(CO)c3cc2C(N)=O)cc(OC)c1OC,"inconclusive: 14.1 µM [quencher, side channel, full curve, poor fit]"
19,Cc1ccc(C(=O)N2CCCCC2)cc1S(=O)(=O)N1CCOCC1,"inconclusive: 10 µM [fluorescent, single point]"

# Reference: PubChem BioAssay AID2662 (National Center for Advancing Translational Sciences (NCATS), 2010)
